Test results published in article doi:10.1101/2022.07.28.501803 (bioRxiv, 2022).
These are yes or no findings as the source states them, for the method shown. Some binding calls cover weakened binding; strength is not graded here. For some assays here: Sequences can lack the tags named with a protein.

Amino acid sequences for entries named in this document (tags omitted).
UniProt P32598: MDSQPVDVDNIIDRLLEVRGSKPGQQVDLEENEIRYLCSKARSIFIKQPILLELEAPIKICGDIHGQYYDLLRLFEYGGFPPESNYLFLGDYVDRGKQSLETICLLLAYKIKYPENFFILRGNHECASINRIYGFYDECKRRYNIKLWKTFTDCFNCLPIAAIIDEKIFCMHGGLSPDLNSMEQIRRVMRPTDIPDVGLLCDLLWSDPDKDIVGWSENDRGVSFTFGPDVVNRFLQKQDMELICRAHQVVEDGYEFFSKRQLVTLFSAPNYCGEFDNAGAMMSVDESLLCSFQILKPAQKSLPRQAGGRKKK
UniProt P53538: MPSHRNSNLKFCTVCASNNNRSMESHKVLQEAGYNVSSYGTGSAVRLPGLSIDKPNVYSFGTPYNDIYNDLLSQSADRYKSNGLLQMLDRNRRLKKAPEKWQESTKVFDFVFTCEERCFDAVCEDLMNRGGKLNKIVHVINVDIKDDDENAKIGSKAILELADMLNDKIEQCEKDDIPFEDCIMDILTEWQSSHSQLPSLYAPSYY

T1: Ref2-StrepII-tag (Ref2-SII) (yeast) (UniProt P42073)
T1 sequence: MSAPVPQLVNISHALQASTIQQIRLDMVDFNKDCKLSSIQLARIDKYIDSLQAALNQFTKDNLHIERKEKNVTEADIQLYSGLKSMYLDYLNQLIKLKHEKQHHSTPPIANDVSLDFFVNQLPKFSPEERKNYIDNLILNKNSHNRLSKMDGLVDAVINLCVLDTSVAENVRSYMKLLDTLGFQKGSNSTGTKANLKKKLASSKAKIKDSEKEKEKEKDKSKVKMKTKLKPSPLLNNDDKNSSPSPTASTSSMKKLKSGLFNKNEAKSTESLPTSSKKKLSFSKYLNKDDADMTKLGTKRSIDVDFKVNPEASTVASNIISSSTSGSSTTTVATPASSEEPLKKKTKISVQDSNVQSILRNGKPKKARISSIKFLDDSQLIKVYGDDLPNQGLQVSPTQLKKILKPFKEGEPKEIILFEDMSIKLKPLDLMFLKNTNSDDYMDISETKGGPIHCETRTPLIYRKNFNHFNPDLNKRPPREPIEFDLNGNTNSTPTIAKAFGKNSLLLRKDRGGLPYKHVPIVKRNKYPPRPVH

T2: Ref2-ΔIDR-SII (Ref2 with residues 230-338 deleted) (yeast) (UniProt P42073)
T2 sequence: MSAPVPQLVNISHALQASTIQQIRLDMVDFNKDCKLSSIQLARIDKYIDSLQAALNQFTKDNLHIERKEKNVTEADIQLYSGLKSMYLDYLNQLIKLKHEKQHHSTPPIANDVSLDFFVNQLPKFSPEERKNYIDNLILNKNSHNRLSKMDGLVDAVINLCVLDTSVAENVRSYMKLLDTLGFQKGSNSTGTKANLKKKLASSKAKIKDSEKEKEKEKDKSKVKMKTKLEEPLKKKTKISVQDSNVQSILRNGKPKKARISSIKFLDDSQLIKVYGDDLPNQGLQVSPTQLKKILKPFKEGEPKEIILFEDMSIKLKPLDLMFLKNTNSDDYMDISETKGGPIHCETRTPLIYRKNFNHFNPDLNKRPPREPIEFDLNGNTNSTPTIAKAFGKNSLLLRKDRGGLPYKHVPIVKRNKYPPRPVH

T3: Pta1-SII (yeast) (UniProt Q01329)
T3 sequence: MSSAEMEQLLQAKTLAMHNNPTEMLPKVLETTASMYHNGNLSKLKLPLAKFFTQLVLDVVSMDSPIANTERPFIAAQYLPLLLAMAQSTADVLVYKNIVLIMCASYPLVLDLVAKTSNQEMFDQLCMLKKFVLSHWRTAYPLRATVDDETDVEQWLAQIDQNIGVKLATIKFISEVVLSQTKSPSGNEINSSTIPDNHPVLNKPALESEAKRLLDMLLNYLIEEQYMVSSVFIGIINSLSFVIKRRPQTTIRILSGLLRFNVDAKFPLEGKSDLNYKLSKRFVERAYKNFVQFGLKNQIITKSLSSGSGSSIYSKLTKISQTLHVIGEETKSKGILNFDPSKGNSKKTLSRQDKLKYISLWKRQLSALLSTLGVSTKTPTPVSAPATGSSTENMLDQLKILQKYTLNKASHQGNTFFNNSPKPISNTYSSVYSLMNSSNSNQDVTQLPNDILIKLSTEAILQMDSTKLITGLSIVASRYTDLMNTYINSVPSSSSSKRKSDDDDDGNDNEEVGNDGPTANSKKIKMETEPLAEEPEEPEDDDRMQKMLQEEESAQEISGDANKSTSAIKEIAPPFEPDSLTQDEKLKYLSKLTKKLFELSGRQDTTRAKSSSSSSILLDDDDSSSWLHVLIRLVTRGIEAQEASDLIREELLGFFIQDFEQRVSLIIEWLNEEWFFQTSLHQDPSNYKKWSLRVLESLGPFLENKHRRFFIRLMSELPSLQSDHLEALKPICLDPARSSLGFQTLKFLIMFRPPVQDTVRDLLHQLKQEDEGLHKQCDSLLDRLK

B1: Swd2 (protein, UniProt P36104 1-329)
chain: MTTVSINKPNLLKFKHVKSFQPQEKDCGPVTSLNFDDNGQFLLTSSSNDTMQLYSATNCKFLDTIASKKYGCHSAIFTHAQNECIYSSTMKNFDIKYLNLETNQYLRYFSGHGALVNDLKMNPVNDTFLSSSYDESVRLWDLKISKPQVIIPSLVPNCIAYDPSGLVFALGNPENFEIGLYNLKKIQEGPFLIIKINDATFSQWNKLEFSNNGKYLLVGSSIGKHLIFDAFTGQQLFELIGTRAFPMREFLDSGSACFTPDGEFVLGTDYDGRIAIWNHSDSISNKVLRPQGFIPCVSHETCPRSIAFNPKYSMFVTADETVDFYVYDE
B2: Pti1 (protein, UniProt P39927 1-425)
chain: MTDPRRRTGRHFLTPENLSSTLQITNLPPEWNQDIITSVVAGSGPVIDIKAKNDPRTGKLTGVLFDYLTSKDCKRAWEILNRIENFPVKIEQIIPPNYKDHLRETANKNSQKQVLQLNRDSYPFEAGLELPFEMVTEVPIPRRPPPPQAANNTNSVSNNTNIQFPDILSKASKHLPSFQDGSIIAPDKISQNLSKIPPLQLIEIISNLKILSNQENIQKSQLESFLDTNSDITISVTQALLEMGFIDYSVVTKVLKSQVGEAPSLLSSNNTSNSNTPVSVIRNNTPLHVPSNEVSNNPNNMPLNVAMPMPMSTPPFIPLPLQQQPFGFAPPGPFMPPAQGPSMGQPVLANQLGQVQQQNISSTEGPSNANKANDSGTINMAKLQLLPENQQDMIKQVLTLTPAQIQSLPSDQQLMVENFRKEYII
B3: Syc1 (protein, UniProt Q08553 1-188)
chain: MDLPKDKSDRTHQRINLNNSGTDRTNDLYLHIVQTFGCIETTATENATKLLMLGDVEVEISASSVSIEWTQKSMISQTIADSIVIMIIGLCASDKNVLSESELKERNHNVWKIQELQNLFREQFGDSFSIDEGIGKKENVKNGSVTIGKSKATIDFSTMKLIDCNSNPLKGRVESILSIGQKLTTPLC
B4: Pta1 (untagged, in APT) (protein, UniProt Q01329 1-785)
chain: T3 sequence

What was measured:
Experiment in all cases: co-purification
[1] = biological target: T1, Ref2-StrepII-tag (Ref2-SII) (yeast)
[2] = biological target: T2, Ref2-ΔIDR-SII (Ref2 with residues 230-338 deleted) (yeast)
[3] = biological target: T3, Pta1-SII (yeast)

Molecule	binding [1]	binding [2]	binding [3]
Glc7 (co-expressed in insect cells) (from UniProt P32598 1-312) (enzyme)	binds	binds	–
Ssu72 (from UniProt P53538 1-206) (enzyme)	binds	–	binds
B1	binds	binds	–
B2	binds	–	binds
B3	binds	–	binds
B4	binds	–	–
